The list does not hold the whole screen: it is rich in T/C values a quarter to a half above the control, in often repeated tests (any T/C) and in doses without a T/C. Other doses and runs of a compound stand elsewhere. T/C is the treated group as % of the vehicle group. Some doses have a count of surviving animals in place of a T/C: the source holds a T/C of zero for them, seemingly a mark for toxic or unscored doses. Some survivor counts are full or nearly so, which does not show that the dose was tolerated: the source hardly ever lists a survival T/C far under the control, and the zero likely stands for such cases as well. Counts of survivors are from the toxicity check (mostly the fifth day) where no day follows; animals may have died later. Schedule codes are those of the source, read here as Q, the interval in days (D) or hours (H), X, the number of doses. Some schedule codes hold Z or #, which are not explained here. Some molecules as drawn cover several salts, stereoisomers or complexes of the source; a dose is that of the sample tested. For survival time, this PubChem deposit counts one and a half times the control or more as active, and values a quarter to a half above the control carry no call in these data; other NCI protocols may use other cut-offs.
Test system: L1210 leukemia ip in BDF1 mice, survival T/C
Test: NCI In Vivo Anticancer Drug Screen. Data for tumor model L1210 Leukemia (intraperitoneal) in B6D2F1 (BDF1) mice
Conditions: T/C endpoint: mean survival time, higher T/C = longer survival
[1] = dose: 100.0 mg/kg/injection, schedule: Q04DX003 (ip), vehicle: saline with Tween-80
[2] = dose: 400.0 mg/kg/injection, schedule: Q04DX003 (ip), vehicle: saline with Tween-80
[3] = dose: 200.0 mg/kg/injection, schedule: Q04DX003 (ip), vehicle: saline with Tween-80
[4] = dose: 200.0 mg/kg/injection, schedule: Q04DX003 (ip), vehicle: saline
[5] = dose: 400.0 mg/kg/injection, schedule: Q04DX003 (ip), vehicle: saline
[6] = dose: 400.0 mg/kg/injection, schedule: Q01DX001 (ip), vehicle: saline

## Cn1c(=O)c2ccccc2c2cc(Cl)ccc21
dose: 200.0 mg/kg/injection, schedule: Q01DX009 (ip), vehicle: Klucel (hydroxypropylcellulose) (HPC)
  survivor count: 3 of 6
dose: 400.0 mg/kg/injection, schedule: Q01DX009 (ip), vehicle: Klucel (hydroxypropylcellulose) (HPC)
  survivor count: 3 of 6

## CCCCOC1NC(=O)NC(=O)C1=[N+]=[N-] (configuration not stated)
[1]
  T/C: 128 % of control
  survivor count: 1 of 6
dose: 150.0 mg/kg/injection, schedule: Q04DX003 (ip), vehicle: saline with Tween-80
  survivor count: 0 of 6
[2]
  survivor count: 0 of 6

## COc1ccc(C2ON2C2CCCCC2)cc1OC (configuration not stated)
dose: 100.0 mg/kg/injection, schedule: Q01DX001 (ip), vehicle: saline
  survivor count: 6 of 6

## NC(N)=N/C(N)=N\c1nn[nH]n1
dose: 200.0 mg/kg/injection, schedule: Q01DX009 (ip), vehicle: saline sonified
  survivor count: 5 of 6

## N#CC(C(N)=O)c1ccccc1 (configuration not stated)
[3]
  survivor count: 4 of 6
[2]
  survivor count: 0 of 6

## CCC(=O)/C=C/C1=C(C)CCCC1(C)C
dose: 400.0 mg/kg/injection, schedule: Q01DX009 (ip), vehicle: saline with Tween-80
  survivor count: 3 of 6

## CC1(C)C2CC=C(CCOC(=O)COc3cc(Cl)c(Cl)cc3Cl)C1C2 (configuration not stated)
dose: 500.0 mg/kg/injection, schedule: Q01DX Z (ip), vehicle: other
  survivor count: 0 of 6

## Cc1cccc(N2CCNCC2)c1
dose: 100.0 mg/kg/injection, schedule: Q04DX002 (ip), vehicle: saline with Tween-80
  survivor count: 0 of 3
dose: 100.0 mg/kg/injection, schedule: Q04DX003 (ip), vehicle: saline
  survivor count: 0 of 6
dose: 200.0 mg/kg/injection, schedule: Q04DX002 (ip), vehicle: saline with Tween-80
  survivor count: 0 of 3
[4]
  survivor count: 0 of 6
dose: 400.0 mg/kg/injection, schedule: Q04DX002 (ip), vehicle: saline with Tween-80
  survivor count: 0 of 3
[5]
  survivor count: 0 of 6

## NC(=O)C(c1ccccc1)N1CCCC1 (configuration not stated)
[4]
  survivor count: 1 of 6
[5]
  survivor count: 0 of 6

## CN1CNC(C=O)(CCc2ccc(Cl)cc2)C1 (configuration not stated)
dose: 100.0 mg/kg/injection, schedule: Q01DX001 (ip), vehicle: other
  survivor count: 4 of 4

## CC(C)(C)CC(C)(C)c1ccc(OCCOc2ccc(C(=O)O)cc2N)cc1
[6]
  survivor count: 6 of 6

## CC(=O)C1CCCC(=O)/C=C/C(=O)O1 (configuration not stated)
dose: 400.0 mg/kg/injection, schedule: Q04DX002 (ip), vehicle: Klucel (hydroxypropylcellulose) (HPC)
  survivor count: 0 of 3

## O=P(NO)(Oc1ccccc1)Oc1ccccc1
dose: 400.0 mg/kg/injection, schedule: Q01DX001 (ip), vehicle: carboxymethylcellulose (CMC)
  survivor count: 2 of 4

## NC1CC[N-]CC1.NC1CC[N-]CC1.NC1CC[N-]CC1.NC1CC[N-]CC1.[Cl][Rh][Cl]
[1]
  survivor count: 1 of 6
[3]
  survivor count: 0 of 6
[2]
  survivor count: 0 of 6

## Nc1ccc(N=Nc2ccc(OCCN(CCO)CCO)cc2)c(N)n1
[6]
  survivor count: 6 of 6

## CC1CC(C)(C)N=C(C(Cc2ccccc2)CC(O)c2ccccc2)O1 (configuration not stated)
[3]
  survivor count: 6 of 6
[2]
  survivor count: 0 of 6

## O=c1oc2ccccc2c(Cl)c1Cl
dose: 20.0 mg/kg/injection, schedule: Q01DX001 (ip), vehicle: saline
  survivor count: 3 of 6
dose: 40.0 mg/kg/injection, schedule: Q01DX001 (ip), vehicle: saline
  survivor count: 1 of 6
dose: 75.0 mg/kg/injection, schedule: Q01DX001 (ip), vehicle: saline
  survivor count: 0 of 6
dose: 150.0 mg/kg/injection, schedule: Q01DX001 (ip), vehicle: saline
  survivor count: 0 of 6
dose: 300.0 mg/kg/injection, schedule: Q01DX001 (ip), vehicle: saline
  survivor count: 0 of 6

## CCOc1ccc(Br)cc1/C=N\N=C\c1cc(Br)ccc1OCC
[4]
  survivor count: 5 of 6
[5]
  survivor count: 5 of 6

— PubChem BioAssay AID248 (DTP/NCI, 2004)
